# Source: the supplement of paper PMC12819154, “High-throughput peptide-centric local stability assay extends protein–ligand identification to membrane proteins, tissues and bacteria” (Nature Structural & Molecular Biology, 2025)
# Sequences of proteins named here, by UniProt entry; tags and fusion partners are left off. A change or cut given only in a name is not applied to a line headed by its entry.
# UniProt Q9UJT2: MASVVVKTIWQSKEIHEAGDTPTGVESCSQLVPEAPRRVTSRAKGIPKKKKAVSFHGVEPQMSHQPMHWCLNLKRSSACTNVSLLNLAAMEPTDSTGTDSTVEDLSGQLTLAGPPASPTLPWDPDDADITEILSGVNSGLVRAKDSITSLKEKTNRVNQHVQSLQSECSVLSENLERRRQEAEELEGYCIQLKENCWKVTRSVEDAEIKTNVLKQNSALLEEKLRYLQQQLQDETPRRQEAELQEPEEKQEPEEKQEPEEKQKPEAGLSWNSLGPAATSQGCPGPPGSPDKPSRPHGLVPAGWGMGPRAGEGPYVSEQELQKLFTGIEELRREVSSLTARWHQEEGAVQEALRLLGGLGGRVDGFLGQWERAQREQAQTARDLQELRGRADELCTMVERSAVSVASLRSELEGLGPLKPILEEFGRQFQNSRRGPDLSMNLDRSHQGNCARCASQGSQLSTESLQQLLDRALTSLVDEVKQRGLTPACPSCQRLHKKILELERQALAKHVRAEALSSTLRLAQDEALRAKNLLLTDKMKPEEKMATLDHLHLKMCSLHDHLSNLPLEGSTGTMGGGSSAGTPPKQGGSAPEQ
# UniProt Q9UPT6: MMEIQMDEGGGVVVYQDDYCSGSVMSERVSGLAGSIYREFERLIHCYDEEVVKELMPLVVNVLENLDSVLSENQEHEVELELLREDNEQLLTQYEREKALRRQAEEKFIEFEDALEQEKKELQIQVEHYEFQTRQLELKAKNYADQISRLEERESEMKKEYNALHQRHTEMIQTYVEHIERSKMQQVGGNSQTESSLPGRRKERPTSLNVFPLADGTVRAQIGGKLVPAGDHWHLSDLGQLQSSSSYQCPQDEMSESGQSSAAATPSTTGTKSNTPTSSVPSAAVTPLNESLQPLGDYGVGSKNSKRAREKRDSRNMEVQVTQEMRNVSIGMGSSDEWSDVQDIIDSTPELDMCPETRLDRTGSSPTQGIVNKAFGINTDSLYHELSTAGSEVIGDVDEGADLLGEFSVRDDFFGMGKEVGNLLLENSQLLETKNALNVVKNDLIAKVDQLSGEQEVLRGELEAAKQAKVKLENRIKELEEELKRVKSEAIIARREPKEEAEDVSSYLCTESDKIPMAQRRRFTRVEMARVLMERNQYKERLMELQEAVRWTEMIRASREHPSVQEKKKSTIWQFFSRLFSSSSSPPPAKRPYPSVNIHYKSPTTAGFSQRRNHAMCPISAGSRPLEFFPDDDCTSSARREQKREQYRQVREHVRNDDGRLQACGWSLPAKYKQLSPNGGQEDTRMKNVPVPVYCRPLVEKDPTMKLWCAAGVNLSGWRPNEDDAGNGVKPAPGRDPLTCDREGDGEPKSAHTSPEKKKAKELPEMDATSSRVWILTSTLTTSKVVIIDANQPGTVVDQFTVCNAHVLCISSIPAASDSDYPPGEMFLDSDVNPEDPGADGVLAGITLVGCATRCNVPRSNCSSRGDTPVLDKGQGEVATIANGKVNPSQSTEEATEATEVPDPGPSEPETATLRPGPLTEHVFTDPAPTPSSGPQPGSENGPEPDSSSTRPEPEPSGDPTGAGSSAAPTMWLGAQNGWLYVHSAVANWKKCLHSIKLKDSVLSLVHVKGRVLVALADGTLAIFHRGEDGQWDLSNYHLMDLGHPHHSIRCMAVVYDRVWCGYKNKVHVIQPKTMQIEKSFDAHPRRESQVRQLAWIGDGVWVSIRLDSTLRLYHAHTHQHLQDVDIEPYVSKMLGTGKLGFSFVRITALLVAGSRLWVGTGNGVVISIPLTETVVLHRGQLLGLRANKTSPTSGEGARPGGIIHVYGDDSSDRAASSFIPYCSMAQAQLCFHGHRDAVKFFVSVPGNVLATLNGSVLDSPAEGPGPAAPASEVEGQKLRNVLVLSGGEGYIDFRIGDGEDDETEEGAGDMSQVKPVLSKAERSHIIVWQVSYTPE
# UniProt Q9UNH5: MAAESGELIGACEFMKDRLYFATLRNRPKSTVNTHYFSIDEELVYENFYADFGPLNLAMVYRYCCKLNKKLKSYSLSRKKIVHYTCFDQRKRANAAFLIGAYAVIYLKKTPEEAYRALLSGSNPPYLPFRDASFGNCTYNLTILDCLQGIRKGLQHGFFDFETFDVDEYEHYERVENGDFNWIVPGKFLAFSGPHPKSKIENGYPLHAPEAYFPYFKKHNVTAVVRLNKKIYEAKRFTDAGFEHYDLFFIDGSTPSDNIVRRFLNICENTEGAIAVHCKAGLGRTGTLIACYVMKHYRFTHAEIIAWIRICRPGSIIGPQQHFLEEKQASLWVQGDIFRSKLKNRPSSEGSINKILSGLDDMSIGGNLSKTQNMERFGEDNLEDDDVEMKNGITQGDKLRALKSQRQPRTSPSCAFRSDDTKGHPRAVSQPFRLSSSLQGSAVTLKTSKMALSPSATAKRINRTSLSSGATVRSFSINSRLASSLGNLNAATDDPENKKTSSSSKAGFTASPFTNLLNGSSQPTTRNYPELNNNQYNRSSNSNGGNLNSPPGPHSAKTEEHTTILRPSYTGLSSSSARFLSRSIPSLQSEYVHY
# UniProt Q9UIY3: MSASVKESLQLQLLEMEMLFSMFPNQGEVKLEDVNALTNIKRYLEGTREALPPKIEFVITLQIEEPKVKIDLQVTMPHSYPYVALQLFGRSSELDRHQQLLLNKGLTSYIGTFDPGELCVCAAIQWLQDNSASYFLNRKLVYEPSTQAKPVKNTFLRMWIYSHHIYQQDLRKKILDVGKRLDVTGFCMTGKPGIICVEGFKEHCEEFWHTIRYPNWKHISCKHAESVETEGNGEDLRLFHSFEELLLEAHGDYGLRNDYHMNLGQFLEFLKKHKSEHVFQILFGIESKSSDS
# UniProt Q9Y243: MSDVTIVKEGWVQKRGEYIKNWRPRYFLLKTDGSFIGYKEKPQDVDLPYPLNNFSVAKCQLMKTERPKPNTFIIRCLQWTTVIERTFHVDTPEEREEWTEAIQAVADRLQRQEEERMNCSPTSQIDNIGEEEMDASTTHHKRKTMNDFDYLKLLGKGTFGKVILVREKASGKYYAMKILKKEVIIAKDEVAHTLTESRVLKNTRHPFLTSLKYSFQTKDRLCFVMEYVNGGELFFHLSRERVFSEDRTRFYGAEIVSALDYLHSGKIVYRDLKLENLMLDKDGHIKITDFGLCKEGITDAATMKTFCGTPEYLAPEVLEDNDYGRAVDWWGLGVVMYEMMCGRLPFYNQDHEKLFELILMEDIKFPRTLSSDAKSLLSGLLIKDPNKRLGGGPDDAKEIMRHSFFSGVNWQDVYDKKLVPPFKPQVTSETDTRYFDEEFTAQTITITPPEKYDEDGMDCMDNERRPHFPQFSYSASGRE
# UniProt Q9UQ49: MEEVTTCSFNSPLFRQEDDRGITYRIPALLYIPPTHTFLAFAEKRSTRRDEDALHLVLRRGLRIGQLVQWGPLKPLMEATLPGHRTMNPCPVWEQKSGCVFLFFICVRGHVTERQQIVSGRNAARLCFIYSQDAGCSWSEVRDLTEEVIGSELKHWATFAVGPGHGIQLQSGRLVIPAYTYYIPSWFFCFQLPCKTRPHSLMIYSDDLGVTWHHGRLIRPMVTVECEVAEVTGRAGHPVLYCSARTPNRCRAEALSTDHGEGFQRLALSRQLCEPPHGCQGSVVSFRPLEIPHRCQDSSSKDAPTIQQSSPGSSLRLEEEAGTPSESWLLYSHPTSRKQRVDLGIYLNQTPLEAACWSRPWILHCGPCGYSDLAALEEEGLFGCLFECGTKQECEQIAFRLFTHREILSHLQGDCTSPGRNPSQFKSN
# UniProt Q9UKA4: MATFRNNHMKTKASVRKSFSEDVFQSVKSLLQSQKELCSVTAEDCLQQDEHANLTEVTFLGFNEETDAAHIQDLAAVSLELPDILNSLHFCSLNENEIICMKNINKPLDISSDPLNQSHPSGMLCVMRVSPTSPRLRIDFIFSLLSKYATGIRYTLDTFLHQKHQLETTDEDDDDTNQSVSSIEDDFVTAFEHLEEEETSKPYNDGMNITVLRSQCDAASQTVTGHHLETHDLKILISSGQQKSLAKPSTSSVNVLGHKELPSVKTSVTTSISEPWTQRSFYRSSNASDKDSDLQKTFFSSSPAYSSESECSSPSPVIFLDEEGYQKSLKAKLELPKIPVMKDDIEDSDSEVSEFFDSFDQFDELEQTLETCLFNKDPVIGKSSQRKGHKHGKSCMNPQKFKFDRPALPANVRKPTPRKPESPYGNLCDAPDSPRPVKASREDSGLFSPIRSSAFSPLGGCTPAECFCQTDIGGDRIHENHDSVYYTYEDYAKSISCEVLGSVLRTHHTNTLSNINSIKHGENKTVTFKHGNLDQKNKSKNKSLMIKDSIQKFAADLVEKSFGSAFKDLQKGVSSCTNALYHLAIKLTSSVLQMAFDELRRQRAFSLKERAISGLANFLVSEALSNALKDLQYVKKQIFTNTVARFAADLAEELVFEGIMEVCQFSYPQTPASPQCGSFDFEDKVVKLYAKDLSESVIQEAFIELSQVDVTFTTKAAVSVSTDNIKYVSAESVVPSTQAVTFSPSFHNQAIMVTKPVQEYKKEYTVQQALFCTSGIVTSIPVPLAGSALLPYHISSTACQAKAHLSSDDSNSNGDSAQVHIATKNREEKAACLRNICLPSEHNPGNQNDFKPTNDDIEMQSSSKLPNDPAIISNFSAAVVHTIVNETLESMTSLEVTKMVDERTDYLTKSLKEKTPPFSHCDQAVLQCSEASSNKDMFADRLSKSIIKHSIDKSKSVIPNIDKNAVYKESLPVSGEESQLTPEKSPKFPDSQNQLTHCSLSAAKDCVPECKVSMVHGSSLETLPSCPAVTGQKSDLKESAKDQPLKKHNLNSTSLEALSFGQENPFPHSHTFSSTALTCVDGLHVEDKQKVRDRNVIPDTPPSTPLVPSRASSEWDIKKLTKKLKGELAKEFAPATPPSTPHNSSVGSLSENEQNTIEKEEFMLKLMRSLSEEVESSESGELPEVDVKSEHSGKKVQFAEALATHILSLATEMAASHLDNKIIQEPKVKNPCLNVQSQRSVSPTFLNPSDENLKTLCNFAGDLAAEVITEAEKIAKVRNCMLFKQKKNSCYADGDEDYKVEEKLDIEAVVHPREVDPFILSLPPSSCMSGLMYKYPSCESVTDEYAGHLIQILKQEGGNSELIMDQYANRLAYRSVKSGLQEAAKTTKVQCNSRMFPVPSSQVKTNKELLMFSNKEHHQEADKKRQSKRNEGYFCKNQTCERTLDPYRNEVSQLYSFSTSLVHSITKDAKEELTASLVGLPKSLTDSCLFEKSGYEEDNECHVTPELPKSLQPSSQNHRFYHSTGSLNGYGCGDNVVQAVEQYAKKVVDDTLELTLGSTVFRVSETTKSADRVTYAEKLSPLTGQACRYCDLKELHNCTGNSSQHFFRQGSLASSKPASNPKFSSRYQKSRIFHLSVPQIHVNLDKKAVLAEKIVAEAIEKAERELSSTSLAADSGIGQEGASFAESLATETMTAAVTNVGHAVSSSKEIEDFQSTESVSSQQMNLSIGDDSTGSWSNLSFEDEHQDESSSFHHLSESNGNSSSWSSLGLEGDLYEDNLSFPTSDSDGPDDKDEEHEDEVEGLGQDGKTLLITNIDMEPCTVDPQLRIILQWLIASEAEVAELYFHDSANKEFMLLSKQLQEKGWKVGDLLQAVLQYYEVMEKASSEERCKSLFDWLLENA
# UniProt Q9UI09, whole entry: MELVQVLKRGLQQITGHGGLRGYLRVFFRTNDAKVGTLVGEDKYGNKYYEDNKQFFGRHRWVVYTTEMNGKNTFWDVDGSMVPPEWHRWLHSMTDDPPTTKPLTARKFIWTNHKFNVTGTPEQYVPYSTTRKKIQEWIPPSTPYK
# UniProt Q9UID3: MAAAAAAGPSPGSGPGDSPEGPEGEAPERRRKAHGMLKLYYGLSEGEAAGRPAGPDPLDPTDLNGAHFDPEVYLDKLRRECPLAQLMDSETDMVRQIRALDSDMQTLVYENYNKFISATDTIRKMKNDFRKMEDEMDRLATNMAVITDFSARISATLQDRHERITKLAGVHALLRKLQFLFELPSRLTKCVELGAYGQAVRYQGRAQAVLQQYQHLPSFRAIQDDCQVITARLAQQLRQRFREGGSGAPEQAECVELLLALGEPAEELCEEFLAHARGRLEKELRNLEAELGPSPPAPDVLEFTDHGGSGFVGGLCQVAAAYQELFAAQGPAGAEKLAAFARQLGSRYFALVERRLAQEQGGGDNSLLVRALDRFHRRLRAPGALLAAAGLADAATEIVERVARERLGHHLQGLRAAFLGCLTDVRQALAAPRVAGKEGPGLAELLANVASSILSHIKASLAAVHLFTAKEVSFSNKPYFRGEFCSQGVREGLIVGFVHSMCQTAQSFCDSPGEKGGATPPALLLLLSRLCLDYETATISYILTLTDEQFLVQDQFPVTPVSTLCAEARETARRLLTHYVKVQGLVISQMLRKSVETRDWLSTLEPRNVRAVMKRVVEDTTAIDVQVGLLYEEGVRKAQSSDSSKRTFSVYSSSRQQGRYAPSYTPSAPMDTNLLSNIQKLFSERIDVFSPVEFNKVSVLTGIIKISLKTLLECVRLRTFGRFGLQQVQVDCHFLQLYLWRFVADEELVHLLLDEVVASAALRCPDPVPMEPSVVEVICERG
# The list shows a part of the results. Most entries show no effect beyond the scatter of the controls.
# Compound: Cc1nc(Nc2ncc(C(=O)Nc3c(C)cccc3Cl)s2)cc(N2CCN(CCO)CC2)n1 [dasatinib]
# Test: log2 fold change of tryptic peptide abundance, ligand vs vehicle (limited proteolysis) (log2 ratio); higher = more trypsin-susceptible (destabilized)
# Conditions: ligand concentration: 5 uM; sample: K562 cleared lysate
row,Target,log2 fold change
1,"TSKS (peptide sequence: VDGFLGQWER, peptide start residue: 362) (UniProt Q9UJT2)",-0.127
2,"UniProt Q9UIF7 (peptide sequence: SHISTDAHSLNSAAQ, peptide start residue: 532)",0.238
3,"MAPK8IP3 (peptide sequence: TGSSPTQGIVNK, peptide start residue: 362) (UniProt Q9UPT6)",0.437
4,"DBNL (peptide sequence: NGPALQEAYVR, peptide start residue: 8) (UniProt Q9UJU6)",0.114
5,"CDC14A (peptide sequence: TSLSSGATVR, peptide start residue: 464) (UniProt Q9UNH5)",0.391
6,"RWDD2A (peptide sequence: HKSEHVFQILFGIESK, peptide start residue: 273) (UniProt Q9UIY3)",-0.157
7,"AKT3 (peptide sequence: LPFYNQDHEK, peptide start residue: 347) (UniProt Q9Y243)",0.347
8,"UniProt Q9UPN7 (peptide sequence: VMGILINR, peptide start residue: 127)",-0.223
9,"POLI (peptide sequence: GVLSFFSK, peptide start residue: 567) (UniProt Q9UNA4)",-0.398
10,"PACSIN3 (peptide sequence: LKEVEASKK, peptide start residue: 147) (UniProt Q9UKS6)",-0.573
11,"BAZ1B (peptide sequence: FSDFLLDPYK, peptide start residue: 288) (UniProt Q9UIG0)",0.202
12,"LCMT1 (peptide sequence: RFAVSIGYWHDPYIQHFVR, peptide start residue: 38) (UniProt Q9UIC8)",-0.618
13,"NEU3 (peptide sequence: AEALSTDHGEGFQR, peptide start residue: 252) (UniProt Q9UQ49)",0.0755
14,"ICAM5 (peptide sequence: GNPEPSVHCAR, peptide start residue: 435) (UniProt Q9UMF0)",-0.277
15,"UniProt Q9ULE0 (peptide sequence: HEQAAEKMLKK, peptide start residue: 1038)",-0.463
16,"TUBE1 (peptide sequence: SLVTSSSGALK, peptide start residue: 238) (UniProt Q9UJT0)",-0.138
17,"AKAP11 (peptide sequence: SQCDAASQTVTGHHLETHDLK, peptide start residue: 214) (UniProt Q9UKA4)",-0.606
18,"FEM1B (peptide sequence: STPLIIAAR, peptide start residue: 47) (UniProt Q9UK73)",0.131
19,"DMTF1 (peptide sequence: NNPTLLENK, peptide start residue: 415) (UniProt Q9Y222)",0.222
20,"GMEB2 (peptide sequence: VQDPPLQLR, peptide start residue: 268) (UniProt Q9UKD1)",-0.204
21,"UniProt Q9Y224 (peptide sequence: LEYGDNAEK, peptide start residue: 90)",-0.335
22,"TPX2 (peptide sequence: HTVPCMPPAK, peptide start residue: 194) (UniProt Q9ULW0)",0.347
23,"MACF1 (peptide sequence: SLGQVSLTHPYSECDFK, peptide start residue: 2882) (UniProt Q9UPN3)",-0.235
24,"NDUFA12 (peptide sequence: WLHSMTDDPPTTKPLTAR, peptide start residue: 89) (UniProt Q9UI09)",0.000525
25,"CIZ1 (peptide sequence: QVQLQLQK, peptide start residue: 418) (UniProt Q9ULV3)",-0.145
26,"VPS51 (peptide sequence: LGHHLQGLR, peptide start residue: 407) (UniProt Q9UID3)",-1.1
27,"USP24 (peptide sequence: TLLSESSSQSSKSPSLSSK, peptide start residue: 1129) (UniProt Q9UPU5)",0.392
28,"ANAPC4 (peptide sequence: WLYVAMLR, peptide start residue: 420) (UniProt Q9UJX5)",-0.212
